Assay results from PubChem BioAssay (Tox21).
“And” between values parts separate entries of the source, which are not always exact repeats. Identical values can stand only once. Inconclusive results, whose numbers are uncertain, are shown with a selection of clear calls. For some assays here: Where the call is inconclusive, the potency comes from a doubtful curve fit. A structure can be active in one record and inactive in another. The source made the active and inactive calls. Unless noted, the call rests on the fitted dose curve.

Chains of the proteins cited; added tags and fusions are not shown. Lines headed by an entry give the natural chain unless they say otherwise; changes in a name come on top.
UniProt P14416, whole entry, looked up: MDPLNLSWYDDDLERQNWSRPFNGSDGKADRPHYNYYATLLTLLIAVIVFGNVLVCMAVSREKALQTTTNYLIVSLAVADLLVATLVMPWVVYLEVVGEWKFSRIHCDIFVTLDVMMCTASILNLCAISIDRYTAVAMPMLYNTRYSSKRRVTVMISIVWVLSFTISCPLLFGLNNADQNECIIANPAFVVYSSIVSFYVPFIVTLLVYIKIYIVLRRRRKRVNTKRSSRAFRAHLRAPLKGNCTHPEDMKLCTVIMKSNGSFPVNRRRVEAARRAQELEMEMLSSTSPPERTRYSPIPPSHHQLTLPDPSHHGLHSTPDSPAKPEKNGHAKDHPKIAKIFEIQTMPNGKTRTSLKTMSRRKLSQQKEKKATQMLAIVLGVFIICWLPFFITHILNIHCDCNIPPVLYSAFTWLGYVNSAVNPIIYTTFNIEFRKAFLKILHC
UniProt P11229: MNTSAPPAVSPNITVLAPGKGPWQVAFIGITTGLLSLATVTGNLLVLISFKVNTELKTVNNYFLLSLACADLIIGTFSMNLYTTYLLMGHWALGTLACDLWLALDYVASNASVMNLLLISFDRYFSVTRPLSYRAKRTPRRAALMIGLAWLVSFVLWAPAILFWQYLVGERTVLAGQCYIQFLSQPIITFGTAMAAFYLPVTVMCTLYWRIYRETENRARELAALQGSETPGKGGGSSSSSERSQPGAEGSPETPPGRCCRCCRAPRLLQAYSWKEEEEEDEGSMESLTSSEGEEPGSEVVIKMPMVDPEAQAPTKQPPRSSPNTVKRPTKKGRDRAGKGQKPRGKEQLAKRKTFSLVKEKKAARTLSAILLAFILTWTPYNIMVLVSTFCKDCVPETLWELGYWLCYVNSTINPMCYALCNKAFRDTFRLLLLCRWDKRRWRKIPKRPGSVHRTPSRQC
UniProt P28223, whole entry, looked up: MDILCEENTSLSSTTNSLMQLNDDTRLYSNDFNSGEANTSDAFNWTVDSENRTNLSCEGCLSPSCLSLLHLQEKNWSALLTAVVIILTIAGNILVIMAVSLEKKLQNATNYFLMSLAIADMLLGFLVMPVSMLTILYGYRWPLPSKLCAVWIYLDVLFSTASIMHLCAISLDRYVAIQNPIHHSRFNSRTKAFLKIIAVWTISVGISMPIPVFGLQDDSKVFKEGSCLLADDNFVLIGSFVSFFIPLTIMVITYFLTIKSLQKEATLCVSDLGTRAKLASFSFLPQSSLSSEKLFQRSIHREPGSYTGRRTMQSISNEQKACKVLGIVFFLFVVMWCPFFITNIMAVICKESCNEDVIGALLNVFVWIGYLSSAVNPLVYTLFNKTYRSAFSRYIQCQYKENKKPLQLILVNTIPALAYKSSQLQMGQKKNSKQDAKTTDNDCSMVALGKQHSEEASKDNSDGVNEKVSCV

Assays:
[1] = Nuclear factor erythroid 2-related factor 2/antioxidant responsive element (Nrf2/ARE) small molecule agonists: luciferase reporter gene qHTS assay in human keratinocytes (AID 1919969); further: nearly all actives have a fitted effect of over 35% in size; further: potency means the concentration at half of the fitted maximal effect
[2] = p53 small molecule agonists, cell-based qHTS assay (AID 1963582; active means well fitted activation curve with a large enough effect in the signal ratio in the repeat runs, not every such curve was filed as active; inconclusive means weak or mixed curves; the % refers to the signal ratio; further: potency means the concentration at half of the fitted maximal effect); details: HCT-116 p53RE-bla reporter, beta-lactamase FRET ratio, 16 h; activation: at 66 µM (top of the series) unless noted
How it was run: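 p53RE-bla reporter cells, compounds added in DMSO after 5 h plating, incubated 16 h at 37 C. Beta-lactamase read via 2 h room-temperature LiveBLAzer B/G FRET substrate, fluorescence intensity.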

[3] = cAMP Responsive Elements (CRE) small molecule agonists, cell-based qHTS assay (AID 1963590); details: CRE-bla HEK293T, beta-lactamase FRET ratio, 3 h; activation: at 92.4 µM (top of the series) unless noted; further: potency means the concentration at half of the fitted maximal effect; on activation: on the % scale 0 is the no-effect control and ±100 the full control effect
How it was run: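 CRE-bla HEK 293T cells, 2,000/well in DMEM with 10% dialyzed FBS and 25 mM HEPES, pre-incubated 18 h at 37 C, then exposed to compound 3 h at 37 C. Beta-lactamase reporter read with LiveBLAzer B/G FRET substrate after 2 h at room temperature.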

[4] = cAMP Responsive Elements (CRE) small molecule antagonists, cell-based qHTS assay (AID 1963591; active means well fitted inhibition curve with a large enough effect in the signal ratio in the repeat runs, not every such curve was filed as active; inconclusive means weak or mixed curves, or effect the other way; the % refers to the signal ratio; further: potency means the concentration at half of the fitted maximal effect; on activity change, negative = inhibition: on the % scale 0 is the no-effect control and ±100 the full control effect); details: CRE-bla HEK293T, beta-lactamase FRET ratio; activity change, negative = inhibition: at 92.4 µM (top of the series) unless noted
How it was run: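 CRE-bla HEK293T cells plated 18 h, then given compound plus NKH477 at 0.25 uM final for 3 h at 37C. Beta-lactamase reporter read with LiveBLAzer B/G FRET substrate after 2 h at room temperature.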

[5] = target: D(2) dopamine receptor (Homo sapiens) (UniProt P14416); assay: Dopamine D2 receptor (DRD2) small molecule agonists, cell-based qHTS assay (AID 1963594); details: HEK293-DRD2 cAMP HTRF, agonist mode, 30 min; activation: at 92.4 µM (top of the series) unless noted; further: nearly all actives have a fitted effect of over 35% in size; further: potency means the concentration at half of the fitted maximal effect; on activation: on the % scale 0 is the no-effect control and ±100 the full control effect
How it was run: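 HEK293 cells stably expressing human DRD2, pre-treated with PDE inhibitor Ro20-1724 (0.1 mM final) and compound 10 min at room temperature, then stimulated with NKH477 (200nM […]) for 30 min. cAMP read by HTRF (665/620 nm).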

[6] = p53 small molecule agonists, cell-based qHTS assay: qHTS cell viability counter screen (AID 1963581); further: nearly all actives have a fitted effect of over 45% in size; further: potency means the concentration at half of the fitted maximal effect
How it was run: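 p53RE-bla HCT-116 cells, compounds added 5 h after plating and incubated 16 h at 37 C. Cytotoxicity measured in the same wells as intracellular ATP by CellTiter-Glo luminescence after 30 min at room temperature.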

[7] = target: Muscarinic acetylcholine receptor M1 (Homo sapiens) (UniProt P11229); assay: Cholinergic receptor muscarinic 1 (CHRM1) small molecule agonists, cell-based qHTS assay (AID 1963589); details: CHRM1-CHO cells, agonist mode, calcium flux fluorescence; activation: at 76.8 µM (top of the series); further: on the % scale 0 is the no-effect control and ±100 the full control effect; nearly all actives have a fitted effect of over 35% in size
How it was run: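 CHO cells stably expressing human CHRM1 were loaded with calcium dye for 1 h at 37 C, then compound was added in agonist mode. Intracellular calcium fluorescence was followed kinetically at 1 s intervals. Fifteen concentrations were tested in three independent runs.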

[8] = target: Beta-2 adrenergic receptor (Homo sapiens) (UniProt P07550); assay: Adrenergic beta2 receptor (ADRB2) small molecule agonists, cell-based qHTS assay (AID 1963593); details: CHO-ADRB2 cells, cAMP HTRF, 30 min; further: potency means the concentration at half of the fitted maximal effect;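 on activation: CHO cells stably overexpressing human ADRB2; on the % scale 0 is the no-effect control and ±100 the full control effect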
How it was run: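 CHO cells stably over-expressing ADRB2 were plated overnight at 37C, then dosed with compounds plus a stimulation mix containing 100uM IBMX and 25uM Ro-20-1724 for 0.5hr at room temperature. cAMP was measured by HTRF competition, 1hr.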

[9] = target: 5-hydroxytryptamine receptor 2A (Homo sapiens) (UniProt P28223); assay: 5-hydroxytryptamine receptor 2A (HTR2A) small molecule antagonists, cell-based qHTS assay (AID 1963586); further: potency means the concentration at half of the fitted maximal effect; nearly all actives have a fitted effect of over 45% in size
How it was run: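 Antagonist-mode intracellular calcium assay: DOI (4 nM) added after 5 min compound pre-incubation at room temperature to dye-loaded HTR2A-CHO cells. Fluorescence followed for 3 min, sampled every second.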

[10] = target: Beta-2 adrenergic receptor (Homo sapiens) (UniProt P07550); assay: Adrenergic beta2 receptor (ADRB2) small molecule antagonists, cell-based qHTS assay (AID 1963592); details: CHO-ADRB2 cells, isoproterenol-stimulated cAMP HTRF ratio, 0.5 h; activity change, negative = inhibition: at 92.4 µM (top of the series) unless noted; further: nearly all actives have a fitted effect of over 50% in size; further: potency means the concentration at half of the fitted maximal effect
How it was run: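 Cells (CHO, stable ADRB2 overexpression) incubated 18-20hr at 37C; compounds added from DMSO; agonist mix (1nM isoproterenol, 100uM IBMX, 25uM Ro-20-1724) added; 0.5hr RT; d2-cAMP and anti-cAMP-cryptate added; 1hr RT; 665/615 nm read.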

[11] = target: D(2) dopamine receptor (Homo sapiens) (UniProt P14416); assay: Dopamine D2 receptor (DRD2) small molecule antagonists, cell-based qHTS assay (AID 1963595; active means well fitted inhibition curve with a large enough effect in the signal ratio in the repeat runs, with a control signal flat; inconclusive means weak or mixed curves, or effect the other way; the % refers to the signal ratio; further: potency means the concentration at half of the fitted maximal effect); details: HEK293-DRD2 cAMP HTRF antagonist mode; activity change, negative = inhibition: at 92.4 µM (top of the series) unless noted
How it was run: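 Stable D2 receptor HEK293 line, 24 h after seeding. Compound preincubated 10 min, then quinpirole (12 nM) with forskolin analogue NKH477 (200 nM), 30 min, room temperature. Detection by time-resolved FRET of cAMP.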

[12] = target: Muscarinic acetylcholine receptor M1 (Homo sapiens) (UniProt P11229); assay: Cholinergic receptor muscarinic 1 (CHRM1) small molecule antagonists, cell-based qHTS assay (AID 1963588); further: nearly all actives have a fitted effect of over 40% in size; further: potency means the concentration at half of the fitted maximal effect
How it was run: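 CHRM1-CHO calcium-flux assay, antagonist mode. Cells were seeded 18 h, dye-loaded 1 h at 37 C and given compound for 5 min at RT, then acetylcholine was added at 50nM. FDSS fluorescence was read 3 min; 15 concentrations, three runs.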

[13] = activation: at 92.4 µM (top of the series) unless noted

Cc1cc(C)c(C(=O)P(=O)(C(=O)c2c(C)cc(C)cc2C)c2ccccc2)c(C)c1
Potency [1]: inconclusive: 68.6 µM [activator, single point] | Potency [2]: inconclusive: 36.3 µM [rising, partial curve] | Potency [3]: inactive | activity change, negative = inhibition [4]: inconclusive: -5.26% | Potency [5]: inactive

CC(C)[C@@H](C(=O)O[C@@H](C#N)c1cccc(Oc2ccccc2)c1)c1ccc(Cl)cc1
Potency [1]: inconclusive: 68.6 µM [activator] | Potency [6]: inactive | Potency [2]: inconclusive: 10.4 µM [rising, partial curve, poor fit] | Potency [7]: inactive | Potency [8, 13]: inconclusive: 4.39 µM [inhibitor, full curve, poor fit] and inactive

C[C@]12CC[C@H]3[C@@H](CCC4=CC(=O)CC[C@@H]43)[C@@H]1CC[C@@H]2OC(=O)CCc1ccco1
Potency [1]: inconclusive: 33.5 µM [activator] | Potency [2]: inconclusive: 9.98 µM [rising, partial curve] | Potency [3]: inconclusive: 26.6 µM [activator, partial curve] | activity change, negative = inhibition [4]: inconclusive: 12.5% [at 42.4 µM] | Potency [8, 13]: active: 2.98 µM | Potency [5]: inconclusive: 0.298 µM [rising, single point]

Oc1ccc(-c2ccccc2)cc1
Potency [1]: inconclusive: 60.3 µM [activator, partial curve, poor fit] and active: 61.1 µM | Potency [2]: inconclusive: 20.2 µM [rising, full curve] | Potency [9]: inconclusive: 37.5 µM [inhibitor, single point] | Potency [3]: inconclusive: 60.3 µM [rising, partial curve] | Potency [10]: active: 60.3 µM | Potency [8, 13]: inconclusive: 53.8 µM [inhibitor, partial curve] | activation [8, 13]: inconclusive: -55.8% | Potency [11]: inconclusive: 67.7 µM [inhibitor, single point]

O=c1[nH]c(Cl)c(Cl)cc1Cl
Potency [1]: inactive | Potency [2]: inconclusive: 16.2 µM [fluorescent, partial curve] | Potency [12]: inactive | Potency [3]: inconclusive: 27.3 µM | Potency [4]: inconclusive: 38.6 µM [fluorescent, partial curve, poor fit] | activation [8, 13]: inconclusive: 7.24%

Clc1ccc(-c2ccc(Cl)c(Cl)c2Cl)c(Cl)c1Cl
Potency [1]: inconclusive: 14.6 µM [activator, single point] | Potency [2]: inconclusive: 48.9 µM [rising, single point] | Potency [3]: inconclusive: 51.9 µM [rising, partial curve] | Potency [8, 13]: inconclusive: 1.3 µM [inhibitor, single point]

COc1ccc(O)c(C(C)(C)C)c1
Potency [1]: inconclusive: 61.1 µM [activator] | Potency [2]: inactive | Potency [9]: active: 23.7 µM | Potency [4]: inconclusive: 68.6 µM | Potency [10]: inactive | activation [8, 13]: inconclusive: -55.4% | activation ([8]; at 92.4 µM (top of the series)): inactive: -0.0727%

CCC(C)c1cc(C(C)(C)C)cc(-n2nc3ccccc3n2)c1O (stereo not drawn)
Potency [1]: inconclusive: 15 µM [activator] | Potency [6]: inconclusive: 0.199 µM [cytotoxic, single point] | Potency [8, 13]: inconclusive: 7.5 µM [inhibitor, single point]

CON(C)C(=O)Nc1ccc(Cl)c(Cl)c1
Potency [1]: inconclusive: 24.4 µM [activator] and inconclusive: 30.6 µM [activator, partial curve, poor fit] | Potency [6]: inconclusive: 18.2 µM [cytotoxic, single point] | activation [8, 13]: inconclusive: -9.31% | activation [5]: inconclusive: -12.4%

O=[N+]([O-])c1ccccc1CCl
Potency [1]: inconclusive: 0.0155 µM [activator, partial curve, poor fit] | Potency [6]: inactive | activity change, negative = inhibition [4]: inconclusive: -13% | activation [8, 13]: inconclusive: -12.8% | Potency [11]: inactive

C=CCC1=C(C)[C@@H](OC(=O)[C@@H]2[C@@H](C=C(C)C)C2(C)C)CC1=O
Potency [1]: active: 61.1 µM | Potency [2]: inconclusive: 16.2 µM [rising, full curve] | Potency [12]: active: 16.8 µM | Potency [3]: inconclusive: 68.6 µM | Potency [4]: inconclusive: 54.5 µM [rising, partial curve, poor fit] | activity change, negative = inhibition [10]: inconclusive: 2.18% | Potency [11]: inconclusive: 61.1 µM [inhibitor, partial curve, poor fit]

CCC(COC(=O)c1cc(OC)c(OC)c(OC)c1)(c1ccccc1)N(C)C (stereo not drawn)
Potency [1]: inactive | Potency [2]: inactive | Potency [3]: inconclusive: 29.8 µM [fluorescent] | Potency [4]: inconclusive: 26.6 µM [fluorescent, single point] | activation [8, 13]: inconclusive: -29.8% [at 42.5 µM]

N#CN=C1SCCN1Cc1ccc(Cl)nc1
Potency [1]: inconclusive: 68.6 µM [activator, single point] | Potency [6]: inconclusive: 14.5 µM [cytotoxic, partial curve, poor fit] | Potency [8, 13]: inactive
